Test system: MCF7
Assay: MTT growth inhibition assay, paclitaxel drug sensitivity
Type: cell-based
Settings: Homo sapiens, MCF7 breast cancer cells, 72 h treatment, read-out: paclitaxel inhibitor concentration 50 (IC50)
Description: The human breast cancer cell lines, including HCC1954, BT474, MCF7, MDA-MB-231, HCC1937 cells, and normal breast cell, Hs371T, were purchased from American Type Culture Collection (ATCC) and cultured at 37° C. in 5% CO2. HCC1954, BT474, and HCC1937 cells were grown in RPMI-1640 (Hyclone), and MCF7, MDA-MB-231, and Hs371T cells were cultured in DMEM (Cyclone). All complete media contained 10% fetal bovine serum (FBS, ThermoFisher Scientific), 100 U/mL penicillin, and 100 μg/mL streptomycin (Millipore Sigma).
Drug sensitivity was determined by the 3-(4, 5-dimethylthiazol-2-yl)-2, 5-diphenyl tetrazolium bromide (MTT) colorimetric assay. First, cells were counted with a hemocytometer, seeded in a 96-well plate, and cultured for 24 h. After that, cells were treated with paclitaxel for 72 h: paclitaxel (1.00E-06-10 µM). Subsequently, MTT dye (Sigma-Aldrich; Merck KGaA) at a final concentration of 0.5 mg/ml was added for 3 hours. This was followed by replacing the medium and dissolving the formazan crystals with DMSO. The optical density (OD; absorbance at 540 nm) was measured using a plate reader (Tecan). Data (mean±SD of at least three independent experiments performed in triplets) are presented as the relative proliferation as a function of time after seeding. […]

IC50: 200 nM
Structure (SMILES): CC(=O)O[C@H]1C(=O)[C@@]2(C)[C@H]([C@H](OC(=O)c3ccccc3)[C@]3(O)C[C@H](OC(=O)[C@H](O)[C@@H](NC(=O)c4ccccc4)c4ccccc4)C(C)=C1C3(C)C)[C@]1(OC(C)=O)CO[C@@H]1C[C@@H]2O [paclitaxel, Paclitaxel]
